PubChem BioAssay AID1224826 | NIAID, 2016

Purpose: 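Regulators of Tlr4 signalling leading to Tnf-alpha expression in macrophages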 (primary screen)
Cell system: RAW264.7 G9 macrophages from mouse bearing reporters for p65 (GFP) and the Tnf promoter (mCherry)
Reagent: siRNA pool against mouse genes, 100 nM
Time to read-out: 16 h of LPS stimulation, after 2 days of siRNA transfection
Challenge: bacterial lipopolysaccharide (Salmonella minnesota R595), 10 ng/ml
Measured: 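Imaged Tnf reporter mCherry in nuclei, minus background, normalised per plate to the median and expressed as robust z-scores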
Scale: Tnf reporter robust z-score: higher = stronger Tnf promoter reporter signal after LPS; Tnf reporter intensity: higher = stronger Tnf promoter reporter signal
Call rule: 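a well counts as active at a score of -1.3 or below (Tlr4 knock-down control median) or above 3 (raised signal); controls and wells holding fewer than 50 cells are excluded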
Calls: active = Tnf reporter clearly lowered or raised; inactive = no clear change in Tnf reporter
In all, the deposit lists about 17,000 reagents; shown is a part drawn at random. In the full data, about 1,110 (6.6%) are marked active. 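Active means lowered or raised reporter signal; replicate intensities are raw and not normalised per plate.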 The numbers tell different reagents against one gene apart. No sequences are given here.

gene symbol | reagent | Tnf reporter robust z-score | fewer than 50 cells in well | Tnf reporter intensity, replicate 1 | Tnf reporter intensity, replicate 2 | outcome
Myh11 (GeneID 17880) | 1 | -0.56 | enough cells in well | 241 | 145 | inactive
Flnc (GeneID 68794) | 1 | 0.04 | enough cells in well | 160 | 160 | inactive
Tmem79 (GeneID 71913) | 1 | – | fewer than 50 cells per well; well left out of calls | 119 | 58.6 | inactive
Fbxw15 (GeneID 382105) | 1 | -0.13 | enough cells in well | 182 | 140 | inactive
Vmn2r89 (GeneID 22301) | 1 | – | fewer than 50 cells per well; well left out of calls | 57.1 | 42.4 | inactive
Vmn2r89 (GeneID 22301) | 2 | -0.21 | enough cells in well | 119 | 76 | inactive
Il36g (GeneID 215257) | 1 | -0.23 | enough cells in well | 181 | 167 | inactive
Ugt2b38 (GeneID 100559) | 1 | 0.6 | enough cells in well | 227 | 216 | inactive
Miga2 (GeneID 108958) | 1 | 0.34 | enough cells in well | 191 | 169 | inactive
Or12d13 (GeneID 258830) | 1 | 0.01 | enough cells in well | 291 | 83.6 | inactive
Dcdc5 (GeneID 329482) | 1 | 0.97 | enough cells in well | 227 | 75.3 | inactive
Sephs1 (GeneID 109079) | 1 | 0.04 | enough cells in well | 164 | 195 | inactive
Col3a1 (GeneID 12825) | 1 | 0.1 | enough cells in well | 267 | 204 | inactive
Ube2z (GeneID 268470) | 1 | 0.54 | enough cells in well | 284 | 257 | inactive
Ctsw (GeneID 13041) | 1 | 3.18 | enough cells in well | 485 | 422 | active
Rcvrn (GeneID 19674) | 1 | -0.17 | enough cells in well | 295 | 191 | inactive
Mrpl50 (GeneID 28028) | 1 | 0.53 | enough cells in well | 167 | 180 | inactive
Hcn2 (GeneID 15166) | 1 | 0.48 | enough cells in well | 292 | 205 | inactive
Krt10 (GeneID 16661) | 1 | 0.21 | enough cells in well | 233 | 178 | inactive
Fam124b (GeneID 241128) | 1 | -0.76 | enough cells in well | 113 | 130 | inactive
Ca7 (GeneID 12354) | 1 | 0.79 | enough cells in well | 179 | 265 | inactive
Cxcl17 (GeneID 232983) | 1 | -0.2 | enough cells in well | 162 | 229 | inactive
Glrb (GeneID 14658) | 1 | -0.38 | enough cells in well | 243 | 101 | inactive
Cpq (GeneID 54381) | 1 | -1.68 | enough cells in well | 70.8 | 50.9 | active
